Test results taken from US20110313028A1 (VIRGINIA COMMONWEALTH UNIVERSITY, published 2011).
These are yes or no findings as the source states them, for the method shown. In cells and extracts the contact can be indirect. Some entries that bind do so weakly or less than the wild type. Sequences can lack the tags named with a protein.

Sequences of proteins named here, by UniProt entry; tags and fusion partners are left off.
UniProt P05412: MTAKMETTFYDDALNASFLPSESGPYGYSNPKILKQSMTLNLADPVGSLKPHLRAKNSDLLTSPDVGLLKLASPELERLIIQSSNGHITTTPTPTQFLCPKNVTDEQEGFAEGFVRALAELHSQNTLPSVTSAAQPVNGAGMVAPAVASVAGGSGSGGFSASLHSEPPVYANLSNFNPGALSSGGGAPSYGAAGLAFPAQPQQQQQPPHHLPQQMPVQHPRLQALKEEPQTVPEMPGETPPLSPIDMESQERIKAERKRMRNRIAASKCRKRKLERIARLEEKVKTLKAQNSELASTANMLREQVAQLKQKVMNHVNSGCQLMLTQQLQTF

Biological target: c-JUN (in HeLa cells) (UniProt P05412)
Experiment: co-immunoprecipitation from HeLa lysates, pull-down in both directions (anti-HA and anti-c-JUN)

binding: binds
B1: HA-tagged SARI (Suppressor of AP-1, Regulated by IFN), expressed in HeLa cells from Ad.SARI (other)
chain: MHLCGGNGLLTQTDPKEQQRQLKKQKNRAAAQRSRQKHTDKADALHQQHESLEKDNLALRKEIQSLQAELAWWSRTLHVHERLCPMDCASCSAPGLLGCWDQAEGLLGPGPQGQHGCREQLELFQTPGSCYPAQPLSPGPQPHDSPSLLQCPLPSLSLGPAVVAEPPVQLSPSPLLFASHTGSSLQGSSSKLSALQPSLTAQTAPPQPLELEHPTRGKLGSSPDNPSSALGLARLQSREHKPALSAATWQGLVVDPSPHPLLAFPLLSSAQVHF
notes: also called SARI protein; WT SARI; not shown: HA tag
